Reference: article PMC9356269, “A purified energy-converting hydrogenase from Thermoanaerobacter kivui demonstrates coupled H^+-translocation and reduction in vitro” (The Journal of Biological Chemistry, 2022)
No constants are given. Whether binding was seen depends on the method and setting. Binding seen in cells or lysates may run through a third protein. These calls come from enrichment with a bait or labelling near it, and not all partners need be listed. Sequences can lack the tags named with a protein.

Amino acid sequences for entries named in this document (tags omitted). A change or cut given only in a name is not applied to a line headed by its entry.
UniProt A0A097ATF1: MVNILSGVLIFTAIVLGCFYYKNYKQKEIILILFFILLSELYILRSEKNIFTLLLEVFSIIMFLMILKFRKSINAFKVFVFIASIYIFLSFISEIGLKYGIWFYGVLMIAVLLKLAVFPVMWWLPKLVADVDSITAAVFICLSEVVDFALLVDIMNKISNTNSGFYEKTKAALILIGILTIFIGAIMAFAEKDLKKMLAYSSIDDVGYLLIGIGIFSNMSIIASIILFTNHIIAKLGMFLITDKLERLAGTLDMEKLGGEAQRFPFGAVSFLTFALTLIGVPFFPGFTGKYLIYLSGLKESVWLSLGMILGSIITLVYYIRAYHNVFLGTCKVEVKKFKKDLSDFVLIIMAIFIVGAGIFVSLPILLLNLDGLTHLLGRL
UniProt A0A097ATH9: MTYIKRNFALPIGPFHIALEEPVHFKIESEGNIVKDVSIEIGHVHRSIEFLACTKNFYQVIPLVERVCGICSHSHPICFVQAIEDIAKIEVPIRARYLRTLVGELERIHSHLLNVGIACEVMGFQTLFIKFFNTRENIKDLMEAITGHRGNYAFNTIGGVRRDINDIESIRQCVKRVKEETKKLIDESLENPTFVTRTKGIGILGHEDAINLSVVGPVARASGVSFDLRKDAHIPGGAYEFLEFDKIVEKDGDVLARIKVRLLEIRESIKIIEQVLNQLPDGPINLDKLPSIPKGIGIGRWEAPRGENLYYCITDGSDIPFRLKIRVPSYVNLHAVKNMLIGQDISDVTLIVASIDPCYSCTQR
UniProt A0A097ATH8: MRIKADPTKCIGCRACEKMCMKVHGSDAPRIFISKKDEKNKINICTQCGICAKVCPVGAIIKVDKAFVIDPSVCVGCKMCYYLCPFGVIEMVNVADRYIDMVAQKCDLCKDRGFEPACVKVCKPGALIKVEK
UniProt A0A097ATH4: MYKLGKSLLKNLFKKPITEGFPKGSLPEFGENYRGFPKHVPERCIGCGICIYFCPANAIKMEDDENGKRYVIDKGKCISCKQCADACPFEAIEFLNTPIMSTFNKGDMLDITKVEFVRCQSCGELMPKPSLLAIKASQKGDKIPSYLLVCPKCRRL
UniProt A0A097ATH3: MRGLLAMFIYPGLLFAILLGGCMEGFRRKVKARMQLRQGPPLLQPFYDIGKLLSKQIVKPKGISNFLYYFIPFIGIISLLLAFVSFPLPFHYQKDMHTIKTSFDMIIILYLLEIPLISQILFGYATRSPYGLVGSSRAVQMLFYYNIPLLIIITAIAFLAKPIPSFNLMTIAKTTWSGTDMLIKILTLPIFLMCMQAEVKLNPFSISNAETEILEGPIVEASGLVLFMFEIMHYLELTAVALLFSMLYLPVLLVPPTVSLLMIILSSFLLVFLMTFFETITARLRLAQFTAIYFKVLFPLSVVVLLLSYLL
UniProt A0A097ATI1: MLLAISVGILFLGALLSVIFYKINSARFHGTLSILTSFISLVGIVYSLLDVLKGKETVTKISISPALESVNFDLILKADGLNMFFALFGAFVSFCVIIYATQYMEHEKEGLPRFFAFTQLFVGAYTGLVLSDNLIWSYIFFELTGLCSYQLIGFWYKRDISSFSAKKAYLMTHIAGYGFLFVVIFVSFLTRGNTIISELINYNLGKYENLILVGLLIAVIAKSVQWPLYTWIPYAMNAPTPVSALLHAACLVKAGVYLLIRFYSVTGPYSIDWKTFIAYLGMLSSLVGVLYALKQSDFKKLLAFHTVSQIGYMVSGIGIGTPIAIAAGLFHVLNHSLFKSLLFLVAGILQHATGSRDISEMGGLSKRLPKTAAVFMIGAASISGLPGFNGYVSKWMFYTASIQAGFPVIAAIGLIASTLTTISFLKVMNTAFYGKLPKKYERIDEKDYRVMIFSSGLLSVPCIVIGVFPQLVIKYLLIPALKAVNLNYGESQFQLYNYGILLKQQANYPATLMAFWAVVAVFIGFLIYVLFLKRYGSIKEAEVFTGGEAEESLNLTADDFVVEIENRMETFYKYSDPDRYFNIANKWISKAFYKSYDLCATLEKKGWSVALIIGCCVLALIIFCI
UniProt A0A097ATJ6: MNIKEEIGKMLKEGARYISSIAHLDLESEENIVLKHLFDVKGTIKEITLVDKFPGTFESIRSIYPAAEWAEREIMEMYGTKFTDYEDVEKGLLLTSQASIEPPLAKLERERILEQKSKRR

Target: T1, His-tagged subunit Ech2C (Thermoanaerobacter kivui)
T1 sequence: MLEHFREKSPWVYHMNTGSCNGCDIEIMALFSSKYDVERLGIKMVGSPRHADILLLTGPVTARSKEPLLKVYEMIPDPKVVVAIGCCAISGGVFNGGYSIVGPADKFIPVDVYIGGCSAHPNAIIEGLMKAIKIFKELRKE
Experiment: affinity purification with mass spectrometry; Ech2C-His produced in trans in T. kivui; membranes solubilised with DDM, Ni2+-NTA resin, washed with 30 mM imidazole, eluted with 150 mM imidazole, 0.02% DDM, pH 7.5, anoxic, room temperature; eluate on 12% SDS-PAGE, subunits identified by peptide mass fingerprinting (MALDI-TOF)

binding, binds:
Ech2A2 (from UniProt A0A097ATF1), Ech2E (from UniProt A0A097ATH9), HycB2 (from UniProt A0A097ATH8), Ech2F (from UniProt A0A097ATH4), Ech2B (from UniProt A0A097ATH3), Ech2A1 (from UniProt A0A097ATI1), Ech2D (from UniProt A0A097ATJ6)
